Results are given in words; binding and its absence hold for the method and conditions named. For some of these results: Binding seen in cells or lysates may run through a third protein. Some binding calls cover weakened binding; strength is not graded here. Tags and fused reporters may be left off the sequences shown.
T1: ATL9 (E3 ubiquitin ligase, Arabidopsis thaliana), Gal4 binding domain fusion from pGBKT7-ATL9 (Arabidopsis thaliana) (UniProt O64763)
T1 sequence: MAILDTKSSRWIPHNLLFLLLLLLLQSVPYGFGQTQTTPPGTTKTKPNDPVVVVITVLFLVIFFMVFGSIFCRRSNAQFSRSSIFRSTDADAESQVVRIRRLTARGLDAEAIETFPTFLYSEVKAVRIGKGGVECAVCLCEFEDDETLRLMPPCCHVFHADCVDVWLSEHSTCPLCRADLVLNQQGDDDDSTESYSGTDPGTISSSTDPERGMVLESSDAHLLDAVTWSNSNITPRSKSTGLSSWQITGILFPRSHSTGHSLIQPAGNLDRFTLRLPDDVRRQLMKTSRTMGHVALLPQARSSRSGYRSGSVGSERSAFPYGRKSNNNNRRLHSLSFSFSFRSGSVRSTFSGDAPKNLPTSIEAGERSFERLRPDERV

T2: ATL9 fused with the C-terminal portion (amino acids 156-239) of YFP (pDEST-VYCE-ATL9) (Arabidopsis thaliana) (UniProt O64763)
T2 sequence: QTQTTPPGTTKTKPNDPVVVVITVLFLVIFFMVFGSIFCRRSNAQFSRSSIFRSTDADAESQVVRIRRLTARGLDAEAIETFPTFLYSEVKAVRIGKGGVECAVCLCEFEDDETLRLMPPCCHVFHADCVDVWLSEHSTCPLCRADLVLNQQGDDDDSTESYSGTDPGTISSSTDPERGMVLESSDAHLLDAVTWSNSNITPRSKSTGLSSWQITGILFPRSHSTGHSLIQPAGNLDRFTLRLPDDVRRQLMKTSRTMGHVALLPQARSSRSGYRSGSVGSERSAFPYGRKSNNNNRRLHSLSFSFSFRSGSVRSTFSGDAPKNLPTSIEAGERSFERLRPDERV


Legend:
[1] = molecular target: T1, ATL9 (E3 ubiquitin ligase, Arabidopsis thaliana), Gal4 binding domain fusion from pGBKT7-ATL9 (Arabidopsis thaliana); experiment: two-hybrid; Matchmaker GAL4 system (Clontech); bait pGBKT7-ATL9 in Y2H Gold mated with preys in pGADT7 in Y187; selection on SD/-Ade/-His/-Leu/-Trp/X-α-gal plates, 3-5 days at 30 °C, blue colonies
[2] = molecular target: T2, ATL9 fused with the C-terminal portion (amino acids 156-239) of YFP (pDEST-VYCE-ATL9) (Arabidopsis thaliana); experiment: split reporter; BiFC with split YFP (pDEST-VYCE and pDEST-VYNE); co-infiltrated into Nicotiana benthamiana leaves by Agrobacterium GV3101; confocal imaging 36 h after infiltration

Row | Binder | binding [1] | binding [2]
1 | Plant defensin 1.2 (PDF1.2), Gal4 activation domain fusion from pGADT7-PDF1.2 (protein, UniProt Q9FI23 1-80) MAKFASIITLIFAALVLFAAFDAPAMVEAQKLCEKPSGTWSGVCGNSNACKNQCINLEGAKHGSCNYVFPAHKCICYVPC | binds | 
2 | Pathogen and circadian controlled 1 (PCC1), Gal4 activation domain fusion from pGADT7-PCC1 (protein, UniProt Q94C26 1-81) MNQSAQNYFSVQKPSETSSGPYTSPPPIGYPTRDAVVGDPPAAAVETNSKGVNPEAIMSCFSTCMECIFCCGVCSSLCTSE | binds | 
3 | PDF1.2 fused with the N-terminal portion (amino acids 1-173) of YFP (pDEST-VYNE-PDF1.2) (protein, UniProt Q9FI23 30-80) QKLCEKPSGTWSGVCGNSNACKNQCINLEGAKHGSCNYVFPAHKCICYVPC |  | binds
4 | PCC1 fused with the N-terminal portion (amino acids 1-173) of YFP (pDEST-VYNE-PCC1) (protein, UniProt Q94C26 1-81) MNQSAQNYFSVQKPSETSSGPYTSPPPIGYPTRDAVVGDPPAAAVETNSKGVNPEAIMSCFSTCMECIFCCGVCSSLCTSE |  | binds

Source: PMC8778023
